From paper PMC12137981 (Acta Pharmaceutica Sinica. B, 2025)

By UniProt entry, the sequences of proteins in these tests, tags left out. Where a name states a change or a piece, a line headed by the entry shows the natural chain unless it says otherwise.
UniProt Q9UBE0: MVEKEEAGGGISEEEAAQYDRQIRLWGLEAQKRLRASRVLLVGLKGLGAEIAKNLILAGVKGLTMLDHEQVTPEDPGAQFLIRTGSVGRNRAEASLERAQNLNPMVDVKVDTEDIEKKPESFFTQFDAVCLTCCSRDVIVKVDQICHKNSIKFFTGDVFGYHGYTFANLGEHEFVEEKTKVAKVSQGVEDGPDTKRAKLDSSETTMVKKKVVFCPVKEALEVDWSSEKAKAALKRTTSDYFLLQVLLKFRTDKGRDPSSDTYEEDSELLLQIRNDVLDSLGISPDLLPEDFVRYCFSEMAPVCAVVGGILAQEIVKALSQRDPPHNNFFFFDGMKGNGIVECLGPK

Target: SUMOylation activating enzyme subunit 1 (SAE1) (Homo sapiens, UniProt Q9UBE0)
Experiment: biochemical

`CN[C@H]1CCc2cc(OC)c(OC)c(OC)c2-c2ccc(OC)c(=O)cc21` [colcemid] was tested. Which Kd did it give?
Its Kd is 70.5 µM.
